Reference: PubChem BioAssay AID1224831 (NIAID, 2016)
The deposit covers about 3,500 reagents; shown is a random part of them. Of all reagents, 731 (21%) are marked active. 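Active means either lowered or raised reporter signal; the gene-median score did not drive the per-siRNA calls.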 Reagents against one gene are numbered here.

- Aim: 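Genes that support or restrain LPS-induced TNF-alpha reporter activity in macrophage-like cells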 (follow-up of hits)
- System: human THP-1 B5 monocytic leukaemia cells carrying a TNF promoter luciferase reporter, made macrophage-like with PMA
- Knock-down reagent: single siRNA against human genes, 50 nM
- Time to read-out: about 68 h of knock-down, then 4 h LPS
- Challenge: LPS (Salmonella minnesota, TLR-grade) at 10 ng/ml for 4 h; PMA 5 ng/ml present during knock-down
- Detection: 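TNF promoter reporter read as dual luciferase ratio after 4 h LPS, normalised per plate to its median, given as replicate mean robust z-score per siRNA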
- Reading the numbers: TNF reporter z-score: higher = stronger LPS-induced TNF reporter signal; z-score, median over gene's siRNAs: higher = stronger TNF reporter signal across the gene's siRNAs
- Rule for the call: 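Two-sided call: reduced or raised TNF reporter signal counts as active once mean z reaches about -1 or below, or about 1.5 or above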
- Meaning of the calls: active = changed TNF reporter (either direction); inactive = little change

gene | siRNA no. | TNF reporter z-score, replicate mean | z-score, median over gene's siRNAs | outcome
CAMK1 | 1 | 0.02 | 0.795 | inactive
CAMK1 | 2 | 0.11 | 0.795 | inactive
CAMK1 | 3 | 0.4 | 0.795 | inactive
CAMK1 | 4 | 16.4 | 0.795 | active
CAMK1 | 5 | 1.7 | 0.795 | active
CAMK1 | 6 | 1.19 | 0.795 | inactive
PDZD4 | 1 | 1.43 | 0.115 | inactive
PDZD4 | 2 | -1.56 | 0.115 | active
PDZD4 | 3 | 1.01 | 0.115 | inactive
PDZD4 | 4 | -1.97 | 0.115 | active
PDZD4 | 5 | 0.3 | 0.115 | inactive
PDZD4 | 6 | -0.07 | 0.115 | inactive
ALG5 | 1 | -0.18 | -0.2 | inactive
ALG5 | 2 | 1.43 | -0.2 | inactive
ALG5 | 3 | -1.72 | -0.2 | active
ALG5 | 4 | -0.86 | -0.2 | inactive
ALG5 | 5 | -0.22 | -0.2 | inactive
ALG5 | 6 | 2.29 | -0.2 | active
OR2B3 | 1 | 0.63 | 0.46 | inactive
OR2B3 | 2 | 0.64 | 0.46 | inactive
OR2B3 | 3 | -0.39 | 0.46 | inactive
OR2B3 | 4 | 0.67 | 0.46 | inactive
OR2B3 | 5 | -0.62 | 0.46 | inactive
OR2B3 | 6 | 0.29 | 0.46 | inactive
KRTAP12-4 | 1 | 0.53 | -0.075 | inactive
KRTAP12-4 | 2 | 1.33 | -0.075 | inactive
KRTAP12-4 | 3 | 0.17 | -0.075 | inactive
KRTAP12-4 | 4 | -1.63 | -0.075 | active
KRTAP12-4 | 5 | -0.56 | -0.075 | inactive
KRTAP12-4 | 6 | -0.32 | -0.075 | inactive
LZTS2 | 1 | 1.08 | 0.51 | inactive
LZTS2 | 2 | -0.06 | 0.51 | inactive
LZTS2 | 3 | -0.69 | 0.51 | inactive
LZTS2 | 4 | -0.18 | 0.51 | inactive
LZTS2 | 5 | 1.92 | 0.51 | active
LZTS2 | 6 | 3.42 | 0.51 | active
MAP3K19 | 1 | -0.97 | -0.265 | inactive
MAP3K19 | 2 | 1.94 | -0.265 | active
MAP3K19 | 3 | -0.2 | -0.265 | inactive
MAP3K19 | 4 | -0.43 | -0.265 | inactive
MAP3K19 | 5 | 1.17 | -0.265 | inactive
MAP3K19 | 6 | -0.33 | -0.265 | inactive
ZNF343 | 1 | 0.39 | 0.745 | inactive
ZNF343 | 2 | 1.2 | 0.745 | inactive
ZNF343 | 3 | 0.21 | 0.745 | inactive
ZNF343 | 4 | 2.33 | 0.745 | active
ZNF343 | 5 | -0.21 | 0.745 | inactive
ZNF343 | 6 | 1.1 | 0.745 | inactive
SOX15 | 1 | 1.55 | 0.055 | active
SOX15 | 2 | -1.1 | 0.055 | active
SOX15 | 3 | 0.04 | 0.055 | inactive
SOX15 | 4 | -0.31 | 0.055 | inactive
SOX15 | 5 | 0.07 | 0.055 | inactive
SOX15 | 6 | 1.59 | 0.055 | active
ISOC2 | 1 | 0.93 | 0.8 | inactive
ISOC2 | 2 | 0.67 | 0.8 | inactive
ISOC2 | 3 | 2.24 | 0.8 | active
ISOC2 | 4 | -1.25 | 0.8 | active
ISOC2 | 5 | -0.15 | 0.8 | inactive
ISOC2 | 6 | 1.2 | 0.8 | inactive
DHX16 | 1 | 0.64 | 0.34 | inactive
DHX16 | 2 | 0.4 | 0.34 | inactive
DHX16 | 3 | 0.28 | 0.34 | inactive
DHX16 | 4 | 0.21 | 0.34 | inactive
DHX16 | 5 | -0.19 | 0.34 | inactive
DHX16 | 6 | 3.55 | 0.34 | active
APOC2 | 1 | -1.62 | -0.115 | active
APOC2 | 2 | 0.61 | -0.115 | inactive
APOC2 | 3 | 0.07 | -0.115 | inactive
APOC2 | 4 | -0.3 | -0.115 | inactive
APOC2 | 5 | 1.17 | -0.115 | inactive
APOC2 | 6 | -0.5 | -0.115 | inactive
INTS6 | 1 | 1.55 | 1.68 | active
INTS6 | 2 | 1.12 | 1.68 | inactive
INTS6 | 3 | 2.64 | 1.68 | active
INTS6 | 4 | 1.8 | 1.68 | active
INTS6 | 5 | 1.9 | 1.68 | active
INTS6 | 6 | 1.35 | 1.68 | inactive
SIK1 | 1 | 0.07 | 0.295 | inactive
SIK1 | 2 | 0.52 | 0.295 | inactive
SIK1 | 3 | 0.61 | 0.295 | inactive
SIK1 | 4 | -0.69 | 0.295 | inactive
SIK1 | 5 | 1.09 | 0.295 | inactive
SIK1 | 6 | -0.64 | 0.295 | inactive
PSMB3 | 1 | 0.53 | -0.825 | inactive
PSMB3 | 2 | -0.81 | -0.825 | inactive
PSMB3 | 3 | -0.9 | -0.825 | inactive
PSMB3 | 4 | -0.84 | -0.825 | inactive
PSMB3 | 5 | -1.41 | -0.825 | active
PSMB3 | 6 | -0.75 | -0.825 | inactive
ATR | 1 | -0.51 | 0.185 | inactive
ATR | 2 | 1.76 | 0.185 | active
ATR | 3 | 0.48 | 0.185 | inactive
ATR | 4 | -0.89 | 0.185 | inactive
ATR | 5 | 1.1 | 0.185 | inactive
ATR | 6 | -0.11 | 0.185 | inactive
AVP | 1 | -0.57 | -0.43 | inactive
AVP | 2 | -0.29 | -0.43 | inactive
AVP | 3 | -0.67 | -0.43 | inactive
AVP | 4 | 0.48 | -0.43 | inactive
AVP | 5 | -1.2 | -0.43 | active
AVP | 6 | 2.07 | -0.43 | active
UNC5A | 1 | -2.3 | -0.365 | active
UNC5A | 2 | -0.73 | -0.365 | inactive
UNC5A | 3 | 0.02 | -0.365 | inactive
UNC5A | 4 | -0.54 | -0.365 | inactive
UNC5A | 5 | -0.19 | -0.365 | inactive
UNC5A | 6 | 0.01 | -0.365 | inactive

6 entries from above, reformatted:
{"gene": "INTS6", "siRNA no.": 4, "TNF reporter z-score, replicate mean": 1.8, "z-score, median over gene's siRNAs": 1.68, "outcome": "active"}
{"gene": "INTS6", "siRNA no.": 5, "TNF reporter z-score, replicate mean": 1.9, "z-score, median over gene's siRNAs": 1.68, "outcome": "active"}
{"gene": "INTS6", "siRNA no.": 6, "TNF reporter z-score, replicate mean": 1.35, "z-score, median over gene's siRNAs": 1.68, "outcome": "inactive"}
{"gene": "SIK1", "siRNA no.": 1, "TNF reporter z-score, replicate mean": 0.07, "z-score, median over gene's siRNAs": 0.295, "outcome": "inactive"}
{"gene": "SIK1", "siRNA no.": 2, "TNF reporter z-score, replicate mean": 0.52, "z-score, median over gene's siRNAs": 0.295, "outcome": "inactive"}
{"gene": "SIK1", "siRNA no.": 3, "TNF reporter z-score, replicate mean": 0.61, "z-score, median over gene's siRNAs": 0.295, "outcome": "inactive"}
